In patent US20060292076A1, “Antimicrobial mediated ozone generation” (priority 2002, published 2006):

Experiment: Oxidation of indigo carmine 1 and ^18O incorporation into cyclic α-ketoamide 2 by different reactive oxygen species
Settings: H2^18O PB

O=[O+][O-] [Clone O3, ozone]
^18O incorporation into 2: yes
